Measured values published in paper doi:10.1101/743930.
Results are given in words; binding and its absence hold for the method and conditions named. In cells and extracts the contact can be indirect. Some results given as binding are weak or reduced against the parent protein; the word gives no strength.

The chains behind the UniProt entries cited, without tags or fusion partners.
UniProt O35253: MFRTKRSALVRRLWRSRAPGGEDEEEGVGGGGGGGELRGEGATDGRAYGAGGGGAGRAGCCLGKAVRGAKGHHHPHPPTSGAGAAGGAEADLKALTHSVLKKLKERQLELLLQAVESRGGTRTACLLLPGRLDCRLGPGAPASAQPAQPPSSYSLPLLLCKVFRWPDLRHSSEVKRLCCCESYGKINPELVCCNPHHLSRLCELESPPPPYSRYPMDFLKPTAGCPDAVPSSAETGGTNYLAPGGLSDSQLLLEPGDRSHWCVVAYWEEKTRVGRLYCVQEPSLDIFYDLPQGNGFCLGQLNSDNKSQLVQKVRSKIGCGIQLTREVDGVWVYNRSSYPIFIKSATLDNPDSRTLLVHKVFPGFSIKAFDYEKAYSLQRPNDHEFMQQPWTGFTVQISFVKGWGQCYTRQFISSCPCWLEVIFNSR

Target: Microtubule-actin cross-linking factor 1 (MACF1) (mouse (endogenous in MC3T3-E1 and in mouse MSCs)) (UniProt Q9QXZ0)
Test: co-IP

binding: binds
Substance: SMAD7 (from UniProt O35253 1-426)
